Measured values taken from patent US20250388687A1.
These are yes or no findings as the source states them, for the method shown. Some results given as binding are weak or reduced against the parent protein; the word gives no strength.

By UniProt entry, the sequences of proteins in these tests, tags left out. Residues count along the entry.
UniProt P32927, residues 17-443: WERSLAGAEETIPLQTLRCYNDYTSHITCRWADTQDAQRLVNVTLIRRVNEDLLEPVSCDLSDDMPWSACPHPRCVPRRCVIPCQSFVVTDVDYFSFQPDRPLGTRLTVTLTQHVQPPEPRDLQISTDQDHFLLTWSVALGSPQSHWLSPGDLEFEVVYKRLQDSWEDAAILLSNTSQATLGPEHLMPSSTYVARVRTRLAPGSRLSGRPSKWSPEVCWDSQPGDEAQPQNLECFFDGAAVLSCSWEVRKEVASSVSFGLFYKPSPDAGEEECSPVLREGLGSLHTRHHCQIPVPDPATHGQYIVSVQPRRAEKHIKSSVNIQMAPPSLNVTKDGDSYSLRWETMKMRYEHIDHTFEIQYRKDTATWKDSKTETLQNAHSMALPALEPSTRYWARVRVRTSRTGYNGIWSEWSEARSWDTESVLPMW

B1: clonotype 293 (EPOR/CD131 binders, Table 8) (antibody, V domains shown)
VH: EVQLVESGGGLVKPGGSLRLSCAASGFTFSSDNMNWVRQAPGKGLEWVSSIGSSSSYIYYADSVKGRFTISRDNAKNSLYLQMNSLRAEDTAVYYCARDRAIVGATWFDPWGQGTLVIVSS
VL: SSELTQDPAVSVALGQTVRITCQGDSLRNYYASWYQQKPGQAPILVIYGKNNRPSGIPDRFSGSSSGNTASLTITGAQAEDEADYYCNSRDSSYNHWVFGGGTKLTVL
B2: clonotype 292 (EPOR/CD131 binders, Table 8) (antibody, V domains shown)
VH: QVQLQESGPGLVKPSETLSLTCTVSGGSISDYYWNWIRQPPGKGLEWIGYISSRGRTNYNPSLKSRVTLSVDSSKNQFSLKLTSVTAADTAVFYCARGRHFDWLLSYFDYWGQGTLVTVSS
VL: SSELTQDPAVSVALGQTVRITCQGDSLRSYYASWYQQKPGQAPVLVIYGKNNRPSGIPDRFSGSSSGNTASLTITGAQAEDEADYYCNSRDSSGNHYVFGTGTKVTVL
B3: clonotype 289 (EPOR/CD131 binders, Table 8) (antibody, V domains shown)
VH: EVHLVESGGGLVQPGGSLRLSCAASGFTFSGYWMSWVRQAPGKGLEWVANIKQDGSDKYYVDSVKGRFTISRDNAINSLFLQLTSLRAEDTAVYYCAREIDWNYGFHFDYWGQGTLITVSS
VL: SYELTQPPSVSVSPGQTARITCSGDALPQKYAFWYQQKSGQAPVLVIYEDSERPSGIPERFSGSTSGTMATLTISGAQVEDEADYYCFSTDSSGNKVFGGGTKLTVL
B4: clonotype 290 (EPOR/CD131 binders, Table 8) (antibody, V domains shown)
VH: QVQLVQSGAEVKKPGASVKVSCKASGYTFTSYDINWVRQATGQGLEWMGWMNPNSGNTGYAQKFQGRVTMTRNTSISTAYMELSSLRSEDTAVYYCARGYYDFWSGPFDYWGQGTLVTVSS
VL: SYELTQPPSVSVSPGQTARITCSGDALPKKYAYWYQQKSGQAPVLVIYEDSKRPSGIPERFSGSSSGTMATLTISGAQVEDEADYYCYSTDSSGNRVFGGGTKLTVL
B5: EPOR/CD131 binder clonotype 273 (antibody, V domains shown)
VH: QVQLQESGPGLVKPSGTLSLTCAISGGSISSSNWWSWVRQPPGKGLEWIGEIYHSGSTNFNPSLKSRVTISVDKSKNQFSLHLSSVTAADTAVYYCARDVGVDGRGFDYWGQGIVVIVSS
VL: SYELTQPPSVSVSPGQTANITCSGDKLENKYTCWYQQKPGQSPLVVIYQDNKRPSGIPERFSGSNSGNTATLTISGTQAMDEADYYCQAWDSTTAWVFGGGTKLTVL
B6: EPOR/CD131 binder clonotype 247 (antibody, V domains shown)
VH: EVQLVESGGGLVQPGGSLRLSCAASGFTFSSYDMHWVRQATGKGLEWVSAIGTAGDTYYPGSVKGRFTISRENAKNSLYLQMNSLRAGDTAVYYCARGDHSYGGLDYWGQGTLVTVSS
VL: SYELTQPPSVSVSLGQMARITCSGEALPKKYAYWYQQKPGQFPVLVIYKDSERPSGIPERFSGSSSGTIVTLTISGVQAEDEADYYCLSADSSGTYRVFGGGTKLTVL
B7: EPOR/CD131 binder clonotype 246 (antibody, V domains shown)
VH: EVQLVESGGGLVQPGGSLRLSCAASGFTFSSYSMNWVRQAPGKGLEWVSYISSSSSTIYYADSVKGRFTISRDNAKNSLYLQMNSPRDEDTAVYYCARESIAALFDYWGQGTLVTVSS
VL: SSELTQDPAVSVALGQTVRITCQGDSLRSYYASWYQQKPGQAPVLVIYGKNNRPSGIPDRFSGSSSGNTASLTITGAQAEDEADYYCNSRDSSGNHLVFGGGTKLTVL
B8: EPOR/CD131 binder clonotype 275 (antibody, V domains shown)
VH: EVQLVESGGGLVQPGGSLRLSCAASGFTFSGYWMTWVRQAPGKGLEWVANIKHDGSEKYYVDSVKGRFTISRDNAQNSLYLQMNSLRAEDTAVYYCARKQLWLNWYFDFWGRGILVTVSS
VL: SSELTQDPAVSVALGQTVRITCQGDSLRRYYASWYQQKPGQAPVLVIYGKDNRPSGIPDRFSGSSSGNTASLTITGTQAEDEADYYCNSRDSSGNHLVFGGGTKLTVL
B9: EPOR/CD131 binder clonotype 255 (antibody, V domains shown)
VH: EVQLVESGGGLVKPGGSLRLSCAASGFTFSSYSMNWVRQAPGKGLEWVSSISSSSSYIYYADSVKGRFTISRDNAKNSLYLQMNSLRAEDTAVYYCARDSAYYTFDYWGQGTLVTVSS
VL: QSALTQPPSASGSPGQSVTISCTGTSSDVGGYNYVSWYQQHPGKAPKLMIYEVSKRPSGVPDRFSGSKSGNTASLTVSGLQAEDEADYYCSSYAGSNNFWVFGGGTKLTVL
B10: EPOR/CD131 binder clonotype 264 (antibody, V domains shown)
VH: EVQLVESGGGLVQPGGSLRLSCAASGFTFSSYWMHWVRQAPGKGLVWVSRINSDGSSTSYADSVKGRFTISRDNAKNTLYLQMNSLRAEDTAVYYCARVGWGGHAFDIWGQGTMVTVSS
VL: SSELTQDPAVSVALGQTVRITCQGDSLRSYYASWYQQKPGQAPVLVIYGKNNRPSGIPDRFSGSSSGNTASLTITGAQAEDEADYYCNSRDSSGNHVVFGGGTKLTVL
B11: EPOR/CD131 binder clonotype 276 (antibody, V domains shown)
VH: QVQLVQSGAEVKKPGASVKVSCKASGYTFTTYGISWVRQAPGQGLEWMGWISAFNGNTNYAQNLQGRVTMTTDTSTSTAYMELRSLRSDDTAVYYCARENNWNYGWFDPWGQGTLVTVSS
VL: SSELTQDPAVSVALGQTVRITCQGDSLRSYYASWYQQKPGQAPVLVIYGKNNRPSGIPDRFSGSSSGNTASLTITGAQAEDEADYYCNSRDSSGNHYVFGTGTKVTVL
B12: EPOR/CD131 binder clonotype 243 (antibody, V domains shown)
VH: QVQLVQSGAEVKKPGASVKVSCKASGYTFTSYGISWVRQAPGQGLEWMGWISAYNGNTNYAQKLQGRVTMTTDTSTSTAYMELRSLRSDDTAVYYCARRGTVVFDYWGQGTLVTVSS
VL: QSALTQPASVSGSPGQSITISCTGTSSDVGGYNYVSWYQQHPGKAPKLMIYDVSKRPSGVSNRFSGSKSGNTASLTISGLQAEDEADYYCCSYAGSSTYVVFGGGTKLTVL
B13: EPOR/CD131 binder clonotype 244 (antibody, V domains shown)
VH: QVQLVQSGAEVKKPGASVKVSCKASGYTFTNYGISWVRQAPGQGLEWMGWISAYNGNTNYAQNLQGRVTMTTDTSTSTAYMELRSLRSDDTAVYYCARPLSGTLDNWGQGTLVTVSS
VL: QSALTQPASVSGSPGQSITISCTGTSSDVGGYNYVSWYQQHPGKAPKLMIYDVSKRPSGVSNRFSGSKSGNTASLTISGLQAEDEADYYCCSYAGRSTLGIDWVFGGGTKLTVR
B14: EPOR/CD131 binder clonotype 260 (antibody, V domains shown)
VH: EVQLVESGGGVVRPGGSLRLSCAASGFPFDDFGLNWVRQAPGKGLEWVSGINWNGGTTTYADSVKGRFTISRDNAKKSLYLQMSSLRVEDTALFYCVRDEIWNYYFDYWGQGTLVTVSS
VL: SYELTQPSSVSVSPGQTARITCSGDVLAKKYARWFQQKPGQAPVLVIYKDSERPSGIPERFSGSSSGTTVTLTISGAQVEDEADYYCYSAADNNRVFGGGTKLTVL
B15: EPOR/CD131 binder clonotype 274 (antibody, V domains shown)
VH: EVQLVESGGGLVQPGGSLRLSCGVSGFTFSIYWMSWVRQAPGKGLEWVANINLDGSEKYHVDSVKGRFTISRDNAKNSLFLQMTSLRAEDTAVYYCARDILWSGGYLDVWGKGTTVTVSS
VL: SSELTQDPAVSVALGQTVRITCQGDNIRNYYASWYQQKPGQAPLLVISGKNNRPSGIPDRFSGSSSGNTASLTITGAQAEDEAYYYCYSRDSSGSLWIFGGGTKLTVL
B16: EPOR/CD131 binder clonotype 272 (antibody, V domains shown)
VH: EVQLVESGGGLVQPGGSLRLSCAASGFTFNRYNMNWVRQAPGKGLEWVSYISSSSDTIYYADSVKGRFTISRDNAKNSLYLQMNSLRDEDTAMYYCARECYSSSWAFDYWGQGTLVTVSS
VL: SSELTQDPAVSVALGQTVRITCQGDSLRSYYASWYQQKPGQAPVLVIYGKNNRPSGILDRFSGSSSGNTASLTITGAQAEDEGDYYCNSRDSSGWVFGGGTKLTVL
B17: EPOR/CD131 binder clonotype 249 (antibody, V domains shown)
VH: QVQLVQSGAEVEKPGASVKVSCKASGYTFTSYDIYWVRQATGQGLEWMGWMIPNSGNTGYAQRFEDRVTMTRSTSMNTAYMELNSLRSEDTAVYYCARGDWAWSFDLWGRGTLVTVSS
VL: QSALTQPASVSGSPGQSITISCTGTSSDVGGYNYVSWYQQHPGKAPKLMIYEVSHRPSGVSNRFSGSKSGNTASLTISGLQAEDESDYYCSSYTSSSSLVFGGGTKLTVL
B18: EPOR/CD131 binder clonotype 282 (antibody, V domains shown)
VH: EVQLVESGGGLVKPGGSLRLSCAASGFTFSSYSMNWVRQAPGKGLEWVSSISSSSSYIYYADSVKGRFTISRDNAKNSLYLQMNSLRAEDTAVYYCAREGNWGPYYFDYWGQGTLVTVSS
VL: QSALTQPASVSGSPGQSITISCTGTSSDVGGYNYVSWYQQHPGKAPKLMIYDVSKRPSGVSNRFSGSKSGNTASLTISGLQAEDEADYYCCSYAGSSTVVFGGGTKLTVL
B19: EPOR/CD131 binder clonotype 265 (antibody, V domains shown)
VH: EVQLVESGGGLVKPGGSLRLSCAASGFTFSTYSMNWVRQAPGKGLEWVSSISSSSTYIYYADSVKGRFTISRDNAKNSLYLQMNSLRAEDTAVYYCARGYNWNYVGDYWGQGTLVTVSS
VL: QSALTQPASVSGSPGQSITISCTGTSSDVGGYNYVSWYQQHPGKAPKLMIYEVSNRPSGVSNRFSGSKSGNTASLTISGLQAEDEADYYCSSYTSSSTLVFGGGTKLTVL
B20: EPOR/CD131 binder clonotype 252 (antibody, V domains shown)
VH: QVQLVESGGGVVQPGRSLRLSCAASGFTFSNYGMHWVRQAPGKGLDWVAVIWYDGNNEYYADSVKDRFTISRDNSQNTLYLQMNSLRAEDRAVYYCVRGGVGDGFDMWGQGTMVTVSS
VL: QSALTQPASVSGSPGQSITISCTGTSSDVGGYNYVSWYQQHPGKVPKLMIYEVSNRPSGVSNRFSGSKSGNTASLTISGLQAEDEADYYCISYTNTNTRVFGGGTKLTVL
B21: EPOR/CD131 binder clonotype 250 (antibody, V domains shown)
VH: QVQLVQSGAEVKKPGASVKVSCKASGYTFTSYYMHWVRQAPGQGLEWMGIINPSGGSTSYAQKFQGRVTMTRDTSTSTVYMELSSLRSEDTAVYYCARGLRRDWFDPWGQGTLVTVSS
VL: QSALTQPASVSGSPGQSITISCTGTSSDVGGYNYVSWYQQHPGKAPKLMIYEVSNRPSGVSNRFSGSKSGNTASLTISGLQAEDEADYYCSSYTSSSTWVFGGGTKLTVL

target: hCD131-Fc (IME021, in house) (human) (UniProt P32927); assay: B-cell sorting with labelled hEPOR-Fc and hCD131-Fc, double-positive population

binding, binds:
B1
B2
B3
B4

target: hCD131-Fc (IME021, in house) (human) (UniProt P32927); assay: B-cell sort with labelled hEPOR-Fc and hCD131-Fc

binding, binds:
B5
B6
B7
B8
B9
B10
B11
B12
B13
B14
B15
B16
B17
B18
B19
B20
B21
